The assay is described as follows: qHTS Assay for Lipid Storage Modulators in Drosophila S3 Cells.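 As to cell number change: cells counted by Cell Tracker Red CMTPX staining in the red channel.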 The note with it: BODIPY lipid droplet fluorescence, 18-24 h; for cell number change: measured here: cell count max response, cells fed with added oleic acid. In short, it runs like this:
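Drosophila S3 cells got compounds at several concentrations plus oleic acid (400 uM solution). Laser-scanning cytometry with 488 nm excitation read lipid droplets at 500-530 nm and cells at 575-640 nm. Percent activity was relative to 20 uM Triacsin C.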
On the technique in general: In qHTS, concentration-response curves come from the screen itself.

[1] abbreviates: measured here: lipid fluorescence (Fed channel) AC50, cells fed with added oleic acid.
Where [2] appears, read: measured here: cell number channel AC50, cells fed with added oleic acid.

This is an account of results in PubChem BioAssay AID2685 (National Center for Advancing Translational Sciences (NCATS), 2010).

Each structure is given as a SMILES string. The list shows a part of the results. Further columns of the screen follow, without active or inactive calls. Compounds called inactive in the main read-out are mostly missing here. Potencies come from curve fits of mixed quality, noted in brackets.

Usually AC50 stands for the concentration giving half of the maximal activity seen. Lower therefore signals greater potency. Consider `CNc1ccc(/C=C(\CCC(=O)O)c2nc3ccccc3s2)cc1[N+](=O)[O-]`, for which the cell number change was -1.58%. Moreover, the AC50 under setting [1] is 7.31 µM [rising, partial curve].

On to `CCCC(O)(CCC)C(=O)NNc1ccccc1`, for which the cell number change stood at 75.6%.

In the case of `Nc1nonc1-c1nc2ccccc2n1CC(=O)N/N=C/c1ccc(-c2ccccc2C(=O)O)o1`, the AC50 under setting [1] is 20.6 µM [rising, single point].

Consider `COCCn1c(-c2ccc(Cl)cc2)cnc1SCC(=O)NCCc1ccc(OC)c(OC)c1`, for which the cell number change was -13.7%.

As for `O=C(CSc1ncccn1)N1CCC(Cc2ccccc2)CC1`, the cell number change worked out at 88%.

Regarding `CC(=O)Nc1c(C(=O)C2CC2)oc2ccccc12`, the cell number change was 24.2%. Also, the AC50 under setting [1] was 18.4 µM [rising, partial curve].

On to `CC1CCN(S(=O)(=O)c2ccc(C(=O)NC3CCS(=O)(=O)C3)cc2)CC1` (centres undefined), for which the cell number change stood at 21.8%. The half-maximal activity concentration (AC50) under setting [1] is 29.1 µM [rising, single point].

Regarding `COC(=O)C1CCN(C(=O)CSc2ccccc2)CC1`, the cell number change is -51.4%. Further, the half-maximal activity concentration (AC50) under setting [2] was 6.51 µM [falling, full curve]. Besides, under setting [1], the concentration at half-maximal activity (AC50) is 2.91 µM [falling, full curve, poor fit].

Take `COC(=O)c1[nH]c2cccc(C)c2c1NC(=O)CN1CCN(c2ccccc2OC)CC1`: the cell number change was 7.56%. Further, the concentration at half-maximal activity (AC50) under setting [1] is 32.6 µM [rising, single point].

Turning to `Nc1nc(-c2ccc(Br)cc2)c(S(=O)(=O)c2ccccc2)s1`, the cell number change worked out at 9.26%. Besides, the concentration at half-maximal activity (AC50) under setting [2] is 6.51 µM [rising, single point]. In addition, the AC50 under setting [1] is 6.51 µM [rising, single point].

Take `O=C(COC(=O)c1ccc(CO)cc1)Nc1ccc2ccccc2c1`: the cell number change was -5.55%. In addition, the AC50 under setting [2] was 6.51 µM [rising, single point]. In addition, the concentration at half-maximal activity (AC50) under setting [1] was 0.00461 µM [falling, full curve, poor fit].

As for `N#Cc1c(NCCCO)nc(NCc2ccccc2)c2c1CCN(Cc1ccccc1)C2`, the cell number change was -23.2%. The AC50 under setting [1] is 29.1 µM [falling, single point].

For the molecule `COCc1nnc(NC(=O)c2cccs2)s1`, the cell number change is -4.98%. In addition, the AC50 under setting [1] is 0.103 µM [falling, full curve, poor fit].

Take `CCn1cc([N+](=O)[O-])c(C(=O)Nc2ccn(Cc3ccccc3F)n2)n1`: the cell number change turned out to be 90.8%. The AC50 under setting [2] is 18.4 µM [rising, single point]. Moreover, the half-maximal activity concentration (AC50) under setting [1] was 6.51 µM [falling, single point].

In the case of `O=C(NCc1ccccc1Cl)c1ccc(S(=O)(=O)Nc2cccc(C(F)(F)F)c2)cc1`, the cell number change was -31.6%. Besides, the half-maximal activity concentration (AC50) under setting [2] is 1.03 µM [falling, full curve, poor fit]. The concentration at half-maximal activity (AC50) under setting [1] is 32.6 µM [falling, single point].

Turning to `CC1CCN(c2nc(/C=C/c3ccccc3)nc3ccccc23)CC1`, the cell number change is -46.8%. Under setting [2], the concentration at half-maximal activity (AC50) is 13 µM [falling, partial curve]. The half-maximal activity concentration (AC50) under setting [1] was 16.4 µM [falling, single point].

For `O=C(CNc1ccccc1)NN=C1CCCC1`, the cell number change came out at 2.69%. The concentration at half-maximal activity (AC50) under setting [2] is 1.3 µM [rising, full curve]. Besides, the AC50 under setting [1] is 1.16 µM [rising, full curve].

Regarding `CCC(C(=O)NC1CCCC1)N(C(=O)Cn1nnc(-c2ccc(C)o2)n1)c1cccc(OC)c1` (centres undefined), the cell number change was determined as 11.3%. Besides, the AC50 under setting [1] was 29.1 µM [rising, single point].

Consider `Cc1ccc(O)c(-c2cc(C(F)(F)F)[nH]n2)c1`, for which the cell number change came to 8.68%. Further, the half-maximal activity concentration (AC50) under setting [1] was 23.1 µM [rising, single point].

On to `Cc1ccc(NS(=O)(=O)c2ccc(C(=O)N3CCCCCC3)cc2)cc1`, for which the cell number change was -22.7%. For the same molecule, the concentration at half-maximal activity (AC50) under setting [1] is 29.1 µM [falling, single point].

Regarding `COc1ccc(NC(=O)CN(c2cccc(C(F)(F)F)c2)S(C)(=O)=O)cc1OC`, the cell number change is 40%. Moreover, under setting [2], the concentration at half-maximal activity (AC50) was 16.4 µM [rising, single point]. Moreover, the concentration at half-maximal activity (AC50) under setting [1] is 5.8 µM [rising, full curve].

As for `CC(C)CN(CCCNC(=O)CN1C(=O)COc2ccc(S(=O)(=O)N3CCCCCC3)cc21)CC(C)C`, the cell number change turned out to be 0.57%. For the same molecule, the half-maximal activity concentration (AC50) under setting [1] was 0.00651 µM [rising, full curve, poor fit].

With `O=C1CC(=O)Nc2cc(S(=O)(=O)N3CCOc4ccccc43)ccc2N1`, the cell number change is -1.15%. The AC50 under setting [1] is 0.0291 µM [rising, full curve, poor fit].

Turning to `COCCn1nnnc1C(c1ccc(C(F)(F)F)cc1)N1CCOCC1` (centres undefined), the cell number change stood at 37.2%. In addition, the concentration at half-maximal activity (AC50) under setting [2] was 18.4 µM [rising, single point].

On to `COc1ccc(OC)c(S(=O)(=O)N2CCN(C(=O)c3cc(C4CC4)nn3-c3ccccc3)CC2)c1`, for which the cell number change was -20.2%. Moreover, the half-maximal activity concentration (AC50) under setting [1] was 29.1 µM [falling, single point].

On to `CCOC(=O)C1=C(C)Nc2nc(C)nn2C1c1cc(OC)ccc1OC` (centres undefined), for which the cell number change was determined as 20.3%. The half-maximal activity concentration (AC50) under setting [1] was 14.6 µM [rising, partial curve].

In the case of `COc1cc(-c2nnc(SCC(=O)NC3CCS(=O)(=O)C3)o2)cc(OC)c1OC` (centres undefined), the cell number change stood at 33.7%.

For the molecule `COc1cc(C(=O)NCC(c2cccs2)N2CCOCC2)c([N+](=O)[O-])cc1OC` (centres undefined), under setting [2], the AC50 is 6.51 µM [rising, single point].

Turning to `C=CCNC(=S)N/N=C/c1ccc(C(C)(C)C)cc1`, the cell number change is -39.9%. Besides, under setting [2], the concentration at half-maximal activity (AC50) was 29.1 µM [falling, single point]. Moreover, under setting [1], the half-maximal activity concentration (AC50) is 29.1 µM [falling, single point].

As for `COc1ccc(NC(=O)CN(C)C(=O)c2cccc(S(=O)(=O)Nc3ccccc3Cl)c2)cc1`, the cell number change was 36.8%. The half-maximal activity concentration (AC50) under setting [2] was 11.6 µM [rising, partial curve, poor fit]. In addition, under setting [1], the AC50 was 2.31 µM [rising, partial curve].

On to `COC(=O)C(C)N(c1ccc(C)cc1)S(=O)(=O)c1c(C)[nH]c(=O)[nH]c1=O` (centres undefined), for which the AC50 under setting [1] was 20.6 µM [falling, partial curve].

As for `COc1ccc(S(=O)(=O)NC(N)=NCCc2ccccc2OC)cc1`, the cell number change was 25.4%. Moreover, the concentration at half-maximal activity (AC50) under setting [1] was 20.6 µM [rising, single point].

Take `CCc1nnc(NC(=O)CSc2nc3[nH]ncc3c(=O)[nH]2)s1`: the cell number change was -44.6%. In addition, the AC50 under setting [2] is 2.31 µM [falling, full curve, poor fit]. Further, under setting [1], the AC50 is 1.64 µM [falling, partial curve].

Regarding `Cc1ccc(N)c2c1OCCC2=O`, the cell number change is -6.97%. Further, under setting [1], the AC50 is 20.6 µM [rising, single point].

For the molecule `Oc1c(N=NC(=S)Nc2ccccc2F)c2ccccc2n1Cc1ccccc1F`, the cell number change is -54.8%. For the same molecule, under setting [2], the concentration at half-maximal activity (AC50) is 18.4 µM [falling, partial curve]. Under setting [1], the half-maximal activity concentration (AC50) was 18.4 µM [falling, partial curve].

Turning to `O=C(O)CCC(=O)Nc1ccc(Cc2ccc(NC(=O)CCC(=O)O)c(O)c2)cc1O`, the cell number change amounted to 32.9%. Also, the AC50 under setting [2] is 23.1 µM [rising, single point]. For the same molecule, the AC50 under setting [1] was 29.1 µM [falling, single point].

As for `CC(=O)Oc1ccc(N(C(C)=O)S(=O)(=O)c2cc([N+](=O)[O-])ccc2C)cc1`, the cell number change is -30.6%. In addition, the half-maximal activity concentration (AC50) under setting [2] is 29.1 µM [falling, single point]. Also, under setting [1], the AC50 was 1.46 µM [falling, single point].

For the molecule `Cc1ccc(N=Nc2c(N)nn3c(C)cc(C)nc23)cc1`, the cell number change was -9.2%. In addition, the concentration at half-maximal activity (AC50) under setting [1] is 0.651 µM [rising, full curve].

`COC(=O)c1ccc2c(=O)[nH]c(CSc3nc(C)cs3)nc2c1`: the cell number change amounted to 41%. Moreover, under setting [2], the AC50 was 29.1 µM [rising, single point]. The half-maximal activity concentration (AC50) under setting [1] is 18.4 µM [rising, single point].

As for `CC(=O)c1ccccc1OCCn1nc(C(=O)O)c2ccccc2c1=O`, the cell number change was 30.3%. Under setting [2], the AC50 was 0.00517 µM [rising, full curve, poor fit].

As to `O=C(CCCn1ncn2c(cc3occc32)c1=O)NCc1cccc(Cl)c1`, the cell number change worked out at 1.89%. Also, the AC50 under setting [2] was 0.82 µM [rising, full curve, poor fit]. Moreover, the AC50 under setting [1] was 0.651 µM [rising, partial curve, poor fit].

As to `CC(C)C(=O)Nc1ccc(NC(=O)c2cc3ccccc3o2)cc1`, the cell number change was found to be 87.3%. For the same molecule, the AC50 under setting [2] was 5.17 µM [rising, partial curve, poor fit]. Further, the AC50 under setting [1] was 9.2 µM [rising, partial curve].

Regarding `Cc1cc(OCC(=O)Nc2ccccc2C)no1`, the cell number change was -3.62%. Moreover, the AC50 under setting [1] is 0.0291 µM [falling, full curve, poor fit].

With `COc1ccc(S(=O)(=O)N2CCN(CC(=O)Nc3sccc3C(N)=O)CC2)cc1OC`, the cell number change was -5.33%. Besides, the AC50 under setting [1] is 23.1 µM [falling, single point].

Take `Cc1cccc(CSc2ccc3nnc(-c4cccnc4)n3n2)c1`: the cell number change worked out at 8.08%. In addition, the AC50 under setting [1] was 0.517 µM [rising, partial curve, poor fit].

In the case of `Cc1ccc(-c2csc(NC(=O)CN3CCOCC3)n2)cc1`, the cell number change was found to be 10.5%. Under setting [1], the AC50 was 6.31 µM [falling, partial curve, poor fit].

Consider `NC(N)=Nc1nc2ccc([N+](=O)[O-])cc2[nH]1`, for which the cell number change was -29.8%. Besides, the concentration at half-maximal activity (AC50) under setting [1] was 29.1 µM [falling, single point].

As to `Cc1c(NC(=O)c2cc(-c3cccc(Cl)c3)on2)c(=O)n(-c2ccccc2)n1C`, the cell number change stood at 10%. Under setting [1], the AC50 was 0.651 µM [rising, full curve, poor fit].

Consider `O=C(NCN1CCCCC1)c1cnccn1`, for which the cell number change is -112%. Further, the AC50 under setting [2] is 18.4 µM [falling, partial curve]. Further, the AC50 under setting [1] is 20.6 µM [falling, partial curve].

As for `CCn1c(=Nc2ccc(N3CCOCC3)cc2)ccc2ccccc21`, the concentration at half-maximal activity (AC50) under setting [1] was 0.411 µM [falling, single point].

Regarding `O=C(OCc1nnc(-c2ccc([N+](=O)[O-])cc2)o1)C1CC(=O)N(CCc2ccccc2)C1` (centres undefined), the cell number change was -0.139%. In addition, the AC50 under setting [1] is 29.1 µM [rising, single point].

For `CSc1cc(-c2ccncc2)nc(-c2ccc(Cl)cc2)c1`, the cell number change was found to be 21.2%. For the same molecule, under setting [1], the concentration at half-maximal activity (AC50) is 2.91 µM [rising, full curve, poor fit].

For the molecule `CCOc1ccccc1N(CC(=O)Nc1ccc(OC)cc1OC)S(=O)(=O)c1ccccc1`, the cell number change turned out to be 14.8%.

For the molecule `CCOc1ccc(NC(=O)C(CC)NC(=O)c2ccccc2CO)cc1` (centres undefined), the cell number change is -63.3%. Besides, under setting [2], the half-maximal activity concentration (AC50) is 29.1 µM [falling, single point].

Take `CCOC(=O)c1c(-c2ccc3ccccc3c2)csc1NC(=O)CCCC(=O)O`: the cell number change was -32.4%. The concentration at half-maximal activity (AC50) under setting [2] is 0.651 µM [falling, full curve, poor fit].
